Our source for the binding values is publication PMC11267380, “USP25 Elevates SHLD2‐Mediated DNA Double‐Strand Break Repair and Regulates Chemoresponse in Cancer” (Advanced Science, 2024).

By UniProt entry, the sequences of proteins in these tests, tags left out.
UniProt Q9UHP3: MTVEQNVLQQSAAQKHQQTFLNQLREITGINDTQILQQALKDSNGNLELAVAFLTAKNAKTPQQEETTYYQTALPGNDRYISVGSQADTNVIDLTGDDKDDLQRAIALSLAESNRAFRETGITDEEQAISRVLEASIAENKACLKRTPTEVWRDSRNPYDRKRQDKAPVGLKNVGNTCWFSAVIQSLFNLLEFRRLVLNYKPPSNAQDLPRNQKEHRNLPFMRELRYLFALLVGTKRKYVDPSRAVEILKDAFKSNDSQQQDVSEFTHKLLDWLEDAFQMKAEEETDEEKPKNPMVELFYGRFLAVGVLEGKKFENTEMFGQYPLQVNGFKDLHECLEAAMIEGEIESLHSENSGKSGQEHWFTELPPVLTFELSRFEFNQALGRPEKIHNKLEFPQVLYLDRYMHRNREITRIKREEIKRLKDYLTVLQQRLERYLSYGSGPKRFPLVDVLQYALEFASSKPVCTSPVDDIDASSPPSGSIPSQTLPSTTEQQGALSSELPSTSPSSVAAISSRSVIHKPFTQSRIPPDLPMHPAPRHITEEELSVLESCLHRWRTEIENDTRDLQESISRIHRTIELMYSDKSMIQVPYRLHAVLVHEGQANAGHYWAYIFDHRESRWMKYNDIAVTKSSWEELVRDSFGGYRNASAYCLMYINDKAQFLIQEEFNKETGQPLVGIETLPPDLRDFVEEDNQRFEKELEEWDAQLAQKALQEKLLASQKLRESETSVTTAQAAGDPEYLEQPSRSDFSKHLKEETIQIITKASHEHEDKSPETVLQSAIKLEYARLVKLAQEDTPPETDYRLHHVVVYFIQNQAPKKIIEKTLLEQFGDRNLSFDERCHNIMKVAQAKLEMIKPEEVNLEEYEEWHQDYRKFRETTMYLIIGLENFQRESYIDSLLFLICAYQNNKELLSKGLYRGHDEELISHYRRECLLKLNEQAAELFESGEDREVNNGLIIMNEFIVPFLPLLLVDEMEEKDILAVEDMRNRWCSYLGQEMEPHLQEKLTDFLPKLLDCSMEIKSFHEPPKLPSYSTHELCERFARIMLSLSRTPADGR
UniProt Q5UIP0: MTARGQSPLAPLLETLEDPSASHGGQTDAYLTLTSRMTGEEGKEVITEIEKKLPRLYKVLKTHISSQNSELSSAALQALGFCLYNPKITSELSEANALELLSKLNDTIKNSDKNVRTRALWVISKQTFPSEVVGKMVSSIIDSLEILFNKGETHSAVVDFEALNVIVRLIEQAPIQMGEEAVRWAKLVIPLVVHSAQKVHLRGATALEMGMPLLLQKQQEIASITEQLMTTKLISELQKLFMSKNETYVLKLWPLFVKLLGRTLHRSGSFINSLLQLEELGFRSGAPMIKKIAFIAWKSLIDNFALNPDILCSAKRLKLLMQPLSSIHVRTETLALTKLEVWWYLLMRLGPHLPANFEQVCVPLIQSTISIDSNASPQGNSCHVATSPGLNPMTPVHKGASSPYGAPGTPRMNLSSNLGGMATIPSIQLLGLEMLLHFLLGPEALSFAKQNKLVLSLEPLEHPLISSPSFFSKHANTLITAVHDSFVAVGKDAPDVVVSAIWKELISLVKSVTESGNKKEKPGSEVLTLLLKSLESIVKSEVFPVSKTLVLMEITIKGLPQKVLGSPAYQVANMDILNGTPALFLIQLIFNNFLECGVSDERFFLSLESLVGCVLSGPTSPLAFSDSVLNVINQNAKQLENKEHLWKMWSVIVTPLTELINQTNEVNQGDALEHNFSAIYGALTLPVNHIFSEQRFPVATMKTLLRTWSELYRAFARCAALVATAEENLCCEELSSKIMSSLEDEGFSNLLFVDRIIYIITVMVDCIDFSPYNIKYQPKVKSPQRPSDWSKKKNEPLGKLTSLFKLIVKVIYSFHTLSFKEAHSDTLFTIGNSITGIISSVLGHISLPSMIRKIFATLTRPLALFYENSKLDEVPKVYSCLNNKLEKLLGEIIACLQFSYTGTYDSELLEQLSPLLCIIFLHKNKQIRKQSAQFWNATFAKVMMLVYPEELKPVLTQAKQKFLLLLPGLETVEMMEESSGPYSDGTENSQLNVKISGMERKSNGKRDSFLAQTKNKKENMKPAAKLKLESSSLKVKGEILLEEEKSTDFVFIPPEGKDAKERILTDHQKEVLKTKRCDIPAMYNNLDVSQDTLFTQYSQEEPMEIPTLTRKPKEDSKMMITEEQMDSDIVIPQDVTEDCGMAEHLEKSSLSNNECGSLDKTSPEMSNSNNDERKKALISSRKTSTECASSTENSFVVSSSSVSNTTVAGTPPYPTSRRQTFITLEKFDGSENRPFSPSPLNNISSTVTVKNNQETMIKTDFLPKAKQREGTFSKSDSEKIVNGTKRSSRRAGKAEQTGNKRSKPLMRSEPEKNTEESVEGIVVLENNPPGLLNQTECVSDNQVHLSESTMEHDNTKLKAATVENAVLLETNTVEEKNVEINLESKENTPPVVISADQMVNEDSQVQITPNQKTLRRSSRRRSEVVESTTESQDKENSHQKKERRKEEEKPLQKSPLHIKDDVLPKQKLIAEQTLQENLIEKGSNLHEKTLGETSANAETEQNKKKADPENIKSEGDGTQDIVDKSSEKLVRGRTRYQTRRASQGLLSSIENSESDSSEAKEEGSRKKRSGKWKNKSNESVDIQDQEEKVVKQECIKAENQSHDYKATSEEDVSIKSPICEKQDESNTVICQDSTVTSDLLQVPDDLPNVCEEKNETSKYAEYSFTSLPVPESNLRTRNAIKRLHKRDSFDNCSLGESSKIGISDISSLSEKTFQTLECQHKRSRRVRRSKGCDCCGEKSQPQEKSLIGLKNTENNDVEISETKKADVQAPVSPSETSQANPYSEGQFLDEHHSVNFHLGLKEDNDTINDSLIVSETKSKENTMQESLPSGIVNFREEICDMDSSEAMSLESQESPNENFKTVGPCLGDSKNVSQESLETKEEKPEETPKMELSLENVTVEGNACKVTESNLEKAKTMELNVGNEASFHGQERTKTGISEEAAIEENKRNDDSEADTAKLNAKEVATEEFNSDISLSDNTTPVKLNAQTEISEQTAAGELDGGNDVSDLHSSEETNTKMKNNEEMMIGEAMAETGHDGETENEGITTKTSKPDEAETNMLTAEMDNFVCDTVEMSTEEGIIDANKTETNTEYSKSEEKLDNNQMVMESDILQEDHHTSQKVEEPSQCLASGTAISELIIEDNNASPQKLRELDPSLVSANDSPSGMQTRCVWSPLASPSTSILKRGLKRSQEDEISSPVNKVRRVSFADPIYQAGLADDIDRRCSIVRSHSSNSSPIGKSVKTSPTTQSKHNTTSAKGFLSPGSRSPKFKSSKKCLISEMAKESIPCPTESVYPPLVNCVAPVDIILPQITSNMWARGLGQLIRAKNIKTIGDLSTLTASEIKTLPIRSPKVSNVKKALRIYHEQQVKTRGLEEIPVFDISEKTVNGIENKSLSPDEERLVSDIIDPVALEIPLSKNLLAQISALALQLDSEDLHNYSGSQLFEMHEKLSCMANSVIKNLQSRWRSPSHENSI
UniProt Q12888: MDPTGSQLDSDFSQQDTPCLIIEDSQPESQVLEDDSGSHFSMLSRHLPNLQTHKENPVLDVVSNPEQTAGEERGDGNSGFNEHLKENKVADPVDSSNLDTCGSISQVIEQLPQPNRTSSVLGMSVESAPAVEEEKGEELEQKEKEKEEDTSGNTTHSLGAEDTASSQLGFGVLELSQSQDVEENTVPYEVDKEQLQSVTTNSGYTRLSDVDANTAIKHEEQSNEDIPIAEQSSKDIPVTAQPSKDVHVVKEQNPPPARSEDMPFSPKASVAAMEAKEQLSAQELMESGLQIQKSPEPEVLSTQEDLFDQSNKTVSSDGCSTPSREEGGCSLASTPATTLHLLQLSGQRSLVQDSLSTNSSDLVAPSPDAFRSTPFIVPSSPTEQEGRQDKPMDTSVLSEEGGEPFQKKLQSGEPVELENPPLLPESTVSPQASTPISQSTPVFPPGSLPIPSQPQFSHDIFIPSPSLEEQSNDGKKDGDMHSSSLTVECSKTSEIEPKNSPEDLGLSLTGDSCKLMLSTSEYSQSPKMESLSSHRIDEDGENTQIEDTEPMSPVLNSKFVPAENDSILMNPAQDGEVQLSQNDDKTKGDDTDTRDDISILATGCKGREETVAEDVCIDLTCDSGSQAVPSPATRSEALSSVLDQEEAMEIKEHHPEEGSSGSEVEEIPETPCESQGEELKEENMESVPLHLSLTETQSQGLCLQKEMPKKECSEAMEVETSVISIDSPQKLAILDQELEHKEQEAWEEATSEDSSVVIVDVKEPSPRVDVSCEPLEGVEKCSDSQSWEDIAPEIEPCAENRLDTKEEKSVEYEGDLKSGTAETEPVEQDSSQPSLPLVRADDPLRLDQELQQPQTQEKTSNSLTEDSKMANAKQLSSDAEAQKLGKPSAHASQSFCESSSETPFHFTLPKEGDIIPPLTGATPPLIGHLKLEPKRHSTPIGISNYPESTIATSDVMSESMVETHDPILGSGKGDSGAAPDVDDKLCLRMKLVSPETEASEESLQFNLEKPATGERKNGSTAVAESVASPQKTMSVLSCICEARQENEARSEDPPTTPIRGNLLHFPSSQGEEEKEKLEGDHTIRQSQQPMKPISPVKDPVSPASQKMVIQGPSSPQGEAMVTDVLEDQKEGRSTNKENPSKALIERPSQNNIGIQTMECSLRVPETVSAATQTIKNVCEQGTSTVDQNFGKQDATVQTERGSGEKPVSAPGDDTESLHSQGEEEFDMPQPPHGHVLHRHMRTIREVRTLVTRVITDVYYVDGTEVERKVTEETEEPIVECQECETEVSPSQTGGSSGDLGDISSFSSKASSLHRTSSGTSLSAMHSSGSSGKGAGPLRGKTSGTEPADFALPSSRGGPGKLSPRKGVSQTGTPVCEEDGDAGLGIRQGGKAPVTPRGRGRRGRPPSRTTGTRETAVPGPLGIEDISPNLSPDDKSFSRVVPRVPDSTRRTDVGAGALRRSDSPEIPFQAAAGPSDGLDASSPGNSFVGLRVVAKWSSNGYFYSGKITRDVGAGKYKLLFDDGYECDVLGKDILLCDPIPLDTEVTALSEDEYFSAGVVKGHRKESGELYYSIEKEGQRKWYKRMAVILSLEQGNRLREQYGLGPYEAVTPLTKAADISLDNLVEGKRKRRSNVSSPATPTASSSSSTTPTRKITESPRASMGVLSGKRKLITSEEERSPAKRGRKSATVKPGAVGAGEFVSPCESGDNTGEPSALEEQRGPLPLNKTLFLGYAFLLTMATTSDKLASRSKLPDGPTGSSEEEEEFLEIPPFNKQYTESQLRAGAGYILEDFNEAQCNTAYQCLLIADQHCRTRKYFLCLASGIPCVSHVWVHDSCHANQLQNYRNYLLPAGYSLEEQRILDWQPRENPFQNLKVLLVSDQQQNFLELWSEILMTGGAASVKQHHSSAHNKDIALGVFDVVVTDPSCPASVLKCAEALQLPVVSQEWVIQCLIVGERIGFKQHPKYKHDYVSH
UniProt Q14258: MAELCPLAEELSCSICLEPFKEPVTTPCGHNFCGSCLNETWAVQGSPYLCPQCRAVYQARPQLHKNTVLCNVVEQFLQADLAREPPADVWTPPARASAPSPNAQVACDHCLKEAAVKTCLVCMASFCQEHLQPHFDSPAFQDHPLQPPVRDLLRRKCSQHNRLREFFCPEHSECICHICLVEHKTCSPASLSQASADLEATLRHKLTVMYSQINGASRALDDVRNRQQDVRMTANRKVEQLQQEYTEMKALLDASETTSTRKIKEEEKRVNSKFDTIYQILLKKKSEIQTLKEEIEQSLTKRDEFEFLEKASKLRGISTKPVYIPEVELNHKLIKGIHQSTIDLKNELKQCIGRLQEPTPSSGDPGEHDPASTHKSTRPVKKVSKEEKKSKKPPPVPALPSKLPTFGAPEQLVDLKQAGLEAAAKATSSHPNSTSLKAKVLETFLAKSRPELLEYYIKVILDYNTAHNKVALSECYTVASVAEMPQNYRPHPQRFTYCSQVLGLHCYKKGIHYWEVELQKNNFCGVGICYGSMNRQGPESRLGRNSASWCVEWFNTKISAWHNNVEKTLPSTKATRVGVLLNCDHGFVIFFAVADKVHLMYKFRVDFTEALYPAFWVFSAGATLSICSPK

Assay [1] has as its target HA-USP25 (USP25^WT in PLVX-CMV-HA) (UniProt Q9UHP3). Briefly: co-IP; cell lysates on HA resin (HA-USP25), immunoprecipitates blotted for TRIM25, HECTD3, NEDD4L and WWP2.
The target in assay [2] is MDC1 (endogenous) (human (endogenous in HEK293T)) (UniProt Q14676). The assay can be described thus: co-IP; HEK293T cells untreated or treated with 5-Fu (20 uM) or IR; the mediator protein (MDC1) immunoprecipitated and blotted for USP25.
The target of a further assay is RIF1 (UniProt Q5UIP0). The assay is described as above.
The next assay addresses 53BP1 (UniProt Q12888). Described as above.
Assay [3] has as its target T1, GST-MDC1 FHA-domain (human) (UniProt Q14676).
T1 sequence: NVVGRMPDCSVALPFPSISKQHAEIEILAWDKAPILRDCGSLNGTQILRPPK
The assay can be described thus: pull-down; GST-MDC1 deletions purified on Glutathione-Sepharose beads, incubated 2 h at 4 °C with lysates of HEK293T cells transfected with USP25 and treated with 5-Fu (20 uM) or IR; washed with NETN buffer; western blot; only the target purified.

These are yes or no findings as the source states them, for the method shown. Binding seen in cells or lysates may run through a third protein. Some results given as binding are weak or reduced against the parent protein; the word gives no strength. For some assays here: Tags and fused reporters may be left off the sequences shown.

As for “TRIM25 (from UniProt Q14258 1-630) (enzyme)”, in assay [1], the binding result is “binds”.
For the substance “USP25 (endogenous) (from UniProt Q9UHP3 1-1055) (enzyme)”, the results for the binding result (in assay [2]; with RIF1; with 53BP1) were “binds”, “no binding” and “no binding”, respectively.
Turning to “USP25^WT (transfected, for GST pull-down) (from UniProt Q9UHP3 1-1055) (enzyme)”, in assay [3], the binding entry was “no binding”.
